Results reported in patent US4390523A, “Sorbose for inhibiting fermentation acids in the mouth” (priority 1972, dated 1983).
“Also recorded” adds a separate entry of the source.

Experiment: Sweetening power and taste
Settings: relative to saccharose

## O=C(CO)[C@H](O)[C@@H](O)[C@H](O)CO [sorbose]
  sweetening power: pronounced sweet taste comparable to that of saccharose; also recorded: substantially the same sweetening power as saccharose
